We go through one substance from paper PMC2572840.

Protein sequences, listed by entry. Tags and fused reporters are not part of them. Lines headed by an entry give the natural chain unless they say otherwise; changes in a name come on top.
UniProt A1X283: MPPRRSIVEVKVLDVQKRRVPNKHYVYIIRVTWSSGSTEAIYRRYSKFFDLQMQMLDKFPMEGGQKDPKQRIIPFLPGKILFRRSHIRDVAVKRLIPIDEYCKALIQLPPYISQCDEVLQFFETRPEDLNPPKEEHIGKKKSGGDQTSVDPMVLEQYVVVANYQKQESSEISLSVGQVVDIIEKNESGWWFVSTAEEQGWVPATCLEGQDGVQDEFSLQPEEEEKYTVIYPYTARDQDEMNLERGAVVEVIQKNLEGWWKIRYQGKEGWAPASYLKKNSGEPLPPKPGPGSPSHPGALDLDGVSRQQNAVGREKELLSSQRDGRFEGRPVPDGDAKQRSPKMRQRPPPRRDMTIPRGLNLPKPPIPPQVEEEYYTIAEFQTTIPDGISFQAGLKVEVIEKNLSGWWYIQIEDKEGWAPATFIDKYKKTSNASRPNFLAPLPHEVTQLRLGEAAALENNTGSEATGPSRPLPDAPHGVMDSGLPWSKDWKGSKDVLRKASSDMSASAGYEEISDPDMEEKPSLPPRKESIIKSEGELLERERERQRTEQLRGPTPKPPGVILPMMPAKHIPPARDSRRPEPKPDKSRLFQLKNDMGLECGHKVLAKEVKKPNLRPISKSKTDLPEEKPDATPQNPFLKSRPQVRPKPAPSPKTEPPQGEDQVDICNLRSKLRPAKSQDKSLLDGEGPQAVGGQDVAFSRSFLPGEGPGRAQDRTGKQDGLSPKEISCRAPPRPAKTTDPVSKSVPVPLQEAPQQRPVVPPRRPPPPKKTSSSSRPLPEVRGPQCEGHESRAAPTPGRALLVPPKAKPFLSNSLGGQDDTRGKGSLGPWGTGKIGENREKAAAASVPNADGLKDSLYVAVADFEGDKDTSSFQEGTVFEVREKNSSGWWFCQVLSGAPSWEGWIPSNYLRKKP

No constants are given. Whether binding was seen depends on the method and setting. Binding can be weak; no strength is given.

The target of the assay is T1, Cytoplasmic domain of mouse β-dystroglycan (recombinant) (mouse) (UniProt Q62165).
T1 sequence: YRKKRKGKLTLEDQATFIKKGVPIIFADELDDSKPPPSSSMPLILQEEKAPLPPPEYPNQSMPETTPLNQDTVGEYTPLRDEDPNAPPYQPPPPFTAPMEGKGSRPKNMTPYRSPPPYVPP
In words: phage display selection; recombinant β-DG adhered to 6-well plastic plates (1 µg/ml in PBS, overnight at 4°C), blocked with 5% milk in PBS/0.05% Tween 20; 10^10 pfu of human SH3 phage library (n = 296) per well, 2 hours; second selection with a secondary library; clones identified by sequencing; only the target purified.

In the case of “Third SH3 domain of Tks4 displayed on phage (from UniProt A1X283) (domain or fragment)”, the binding entry is “binds”.
